Assay results published in publication PMC7250575.
Results are given in words; binding and its absence hold for the method and conditions named. In cells and extracts the contact can be indirect. Some entries that bind do so weakly or less than the wild type.

Protein sequences, listed by entry. Tags and fused reporters are not part of them.
UniProt P46938: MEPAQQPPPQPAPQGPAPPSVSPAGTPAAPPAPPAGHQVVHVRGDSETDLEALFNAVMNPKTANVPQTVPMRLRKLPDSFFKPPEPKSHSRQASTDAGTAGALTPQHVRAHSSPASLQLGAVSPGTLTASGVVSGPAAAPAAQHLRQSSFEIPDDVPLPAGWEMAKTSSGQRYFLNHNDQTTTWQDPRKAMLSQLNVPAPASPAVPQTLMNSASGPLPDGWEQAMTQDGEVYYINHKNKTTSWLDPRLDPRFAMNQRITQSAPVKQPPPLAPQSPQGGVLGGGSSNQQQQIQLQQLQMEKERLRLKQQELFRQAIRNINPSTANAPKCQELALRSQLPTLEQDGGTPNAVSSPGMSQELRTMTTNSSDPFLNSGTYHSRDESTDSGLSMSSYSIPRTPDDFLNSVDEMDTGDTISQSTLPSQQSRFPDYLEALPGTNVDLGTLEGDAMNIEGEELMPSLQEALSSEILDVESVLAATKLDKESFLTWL

Target: T1, 14-3-3σ, endogenous, mouse (mouse (endogenous in newborn skin keratinocytes)) (UniProt O70456)
T1 sequence: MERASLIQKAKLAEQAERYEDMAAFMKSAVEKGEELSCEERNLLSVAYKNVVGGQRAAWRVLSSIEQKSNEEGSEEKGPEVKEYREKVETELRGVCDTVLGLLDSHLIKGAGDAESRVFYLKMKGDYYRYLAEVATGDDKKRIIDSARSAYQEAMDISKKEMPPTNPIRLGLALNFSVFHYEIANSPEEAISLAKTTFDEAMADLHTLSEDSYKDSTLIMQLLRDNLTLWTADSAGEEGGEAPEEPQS
Test: proximity ligation; Duolink in situ PLA for 14-3-3σ and YAP1 in fixed WT and Krt14 C373A newborn mouse keratinocytes in primary culture, 1 mM calcium for 4 days

YAP1, endogenous, mouse (from UniProt P46938 1-488)
binding: binds
